Laboratory results taken from publication PMC7962252.
No constants are given. Whether binding was seen depends on the method and setting. Binding seen in cells or lysates may run through a third protein. Some binding calls cover weakened binding; strength is not graded here.

Sequences of proteins named here, by UniProt entry; tags and fusion partners are left off. Residues count along the entry.
UniProt Q9Y2A7: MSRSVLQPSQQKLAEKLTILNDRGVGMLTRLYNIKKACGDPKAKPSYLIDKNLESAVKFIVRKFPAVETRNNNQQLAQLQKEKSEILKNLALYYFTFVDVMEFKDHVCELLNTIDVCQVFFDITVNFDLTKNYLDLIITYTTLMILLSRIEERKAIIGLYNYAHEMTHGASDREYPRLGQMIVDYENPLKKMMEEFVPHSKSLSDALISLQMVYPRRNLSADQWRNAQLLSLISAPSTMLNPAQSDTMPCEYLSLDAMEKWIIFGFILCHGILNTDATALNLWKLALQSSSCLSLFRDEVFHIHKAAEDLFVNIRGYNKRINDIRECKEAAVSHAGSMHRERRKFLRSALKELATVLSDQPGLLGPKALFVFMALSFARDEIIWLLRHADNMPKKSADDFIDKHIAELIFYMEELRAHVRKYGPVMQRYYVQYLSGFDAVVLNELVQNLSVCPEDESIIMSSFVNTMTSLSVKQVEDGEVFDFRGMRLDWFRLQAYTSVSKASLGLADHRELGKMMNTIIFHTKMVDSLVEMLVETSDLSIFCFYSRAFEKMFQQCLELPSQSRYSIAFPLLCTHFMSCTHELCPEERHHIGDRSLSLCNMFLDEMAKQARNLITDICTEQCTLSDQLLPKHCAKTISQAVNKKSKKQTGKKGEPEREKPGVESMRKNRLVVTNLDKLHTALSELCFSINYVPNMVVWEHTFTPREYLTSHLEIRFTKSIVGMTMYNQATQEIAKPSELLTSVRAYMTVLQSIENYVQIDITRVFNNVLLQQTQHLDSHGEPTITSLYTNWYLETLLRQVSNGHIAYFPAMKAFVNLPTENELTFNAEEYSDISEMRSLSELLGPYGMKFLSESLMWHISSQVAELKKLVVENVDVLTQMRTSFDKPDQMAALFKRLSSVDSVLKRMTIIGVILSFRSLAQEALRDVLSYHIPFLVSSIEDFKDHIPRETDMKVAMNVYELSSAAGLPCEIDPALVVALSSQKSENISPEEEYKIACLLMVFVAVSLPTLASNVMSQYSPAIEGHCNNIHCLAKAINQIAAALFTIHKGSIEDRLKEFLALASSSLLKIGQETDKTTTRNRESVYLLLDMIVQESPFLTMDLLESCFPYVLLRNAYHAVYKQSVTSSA
UniProt Q7L576: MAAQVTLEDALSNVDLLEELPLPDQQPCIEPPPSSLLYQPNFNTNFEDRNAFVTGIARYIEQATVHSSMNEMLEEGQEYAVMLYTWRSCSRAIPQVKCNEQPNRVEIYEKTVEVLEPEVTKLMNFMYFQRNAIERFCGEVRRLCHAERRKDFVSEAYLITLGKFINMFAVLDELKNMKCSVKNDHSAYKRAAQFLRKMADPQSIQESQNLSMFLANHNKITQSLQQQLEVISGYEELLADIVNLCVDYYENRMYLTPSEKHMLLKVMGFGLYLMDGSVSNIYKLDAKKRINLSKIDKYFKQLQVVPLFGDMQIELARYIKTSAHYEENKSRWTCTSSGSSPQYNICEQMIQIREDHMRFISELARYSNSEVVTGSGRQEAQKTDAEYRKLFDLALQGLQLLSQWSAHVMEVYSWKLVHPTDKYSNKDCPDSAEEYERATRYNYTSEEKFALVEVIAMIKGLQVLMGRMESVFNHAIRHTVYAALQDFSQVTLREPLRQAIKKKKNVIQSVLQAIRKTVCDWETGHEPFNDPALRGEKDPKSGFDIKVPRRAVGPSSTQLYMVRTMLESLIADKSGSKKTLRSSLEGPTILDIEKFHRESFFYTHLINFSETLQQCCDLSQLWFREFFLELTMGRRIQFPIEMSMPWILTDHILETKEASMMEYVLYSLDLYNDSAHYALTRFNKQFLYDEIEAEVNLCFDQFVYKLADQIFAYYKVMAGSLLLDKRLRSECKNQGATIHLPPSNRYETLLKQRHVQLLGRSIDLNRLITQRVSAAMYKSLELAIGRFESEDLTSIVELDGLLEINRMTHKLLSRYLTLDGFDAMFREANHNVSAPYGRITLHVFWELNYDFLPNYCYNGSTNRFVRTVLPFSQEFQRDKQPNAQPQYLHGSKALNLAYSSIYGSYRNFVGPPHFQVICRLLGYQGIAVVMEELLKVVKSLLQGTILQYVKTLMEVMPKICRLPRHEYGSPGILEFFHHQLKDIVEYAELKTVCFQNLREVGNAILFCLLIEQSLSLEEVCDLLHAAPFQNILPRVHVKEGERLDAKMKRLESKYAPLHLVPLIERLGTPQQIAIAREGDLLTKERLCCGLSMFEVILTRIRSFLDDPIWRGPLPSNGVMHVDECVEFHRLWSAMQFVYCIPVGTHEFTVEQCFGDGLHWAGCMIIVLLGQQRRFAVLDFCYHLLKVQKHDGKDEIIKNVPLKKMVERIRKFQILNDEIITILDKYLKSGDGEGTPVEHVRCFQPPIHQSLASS
UniProt Q14C87, residues 31-1099: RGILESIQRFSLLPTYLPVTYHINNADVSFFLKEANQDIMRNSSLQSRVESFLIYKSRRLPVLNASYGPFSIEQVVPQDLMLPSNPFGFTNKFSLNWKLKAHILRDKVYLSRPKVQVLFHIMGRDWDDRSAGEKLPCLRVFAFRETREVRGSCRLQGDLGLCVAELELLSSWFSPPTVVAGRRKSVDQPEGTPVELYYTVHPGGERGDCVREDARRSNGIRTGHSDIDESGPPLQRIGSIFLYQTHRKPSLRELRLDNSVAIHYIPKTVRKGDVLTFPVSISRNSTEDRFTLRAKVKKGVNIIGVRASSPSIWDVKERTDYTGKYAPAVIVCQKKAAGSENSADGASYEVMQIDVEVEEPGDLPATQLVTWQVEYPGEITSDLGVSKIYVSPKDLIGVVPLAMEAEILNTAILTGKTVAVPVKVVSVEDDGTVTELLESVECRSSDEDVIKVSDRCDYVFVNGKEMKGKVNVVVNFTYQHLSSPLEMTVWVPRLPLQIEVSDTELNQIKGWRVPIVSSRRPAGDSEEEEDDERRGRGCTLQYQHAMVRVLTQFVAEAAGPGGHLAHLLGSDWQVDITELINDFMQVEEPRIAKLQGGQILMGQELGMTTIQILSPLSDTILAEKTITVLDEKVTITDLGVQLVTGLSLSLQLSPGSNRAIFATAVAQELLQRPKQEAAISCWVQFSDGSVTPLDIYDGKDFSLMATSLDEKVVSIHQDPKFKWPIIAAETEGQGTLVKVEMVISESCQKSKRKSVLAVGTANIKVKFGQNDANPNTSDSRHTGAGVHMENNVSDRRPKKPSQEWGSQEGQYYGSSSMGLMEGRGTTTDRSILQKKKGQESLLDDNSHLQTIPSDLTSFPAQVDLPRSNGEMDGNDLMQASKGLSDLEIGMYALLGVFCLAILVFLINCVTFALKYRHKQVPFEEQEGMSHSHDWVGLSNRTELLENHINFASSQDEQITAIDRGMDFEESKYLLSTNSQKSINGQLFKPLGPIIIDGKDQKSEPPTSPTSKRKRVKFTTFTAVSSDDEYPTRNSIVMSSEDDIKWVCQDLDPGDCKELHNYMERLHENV

Tests used:
[1] = molecular target: GFP-tagged full-length NAP1 (human) (UniProt Q9Y2A7); test: co-IP; TMEM132D-V5 (or mutants) and GFP-tagged WRC components co-transfected in HEK293 cells; lysate on GFP-Trap beads 4 °C 2 h, five washes with lysis buffer; blot with antibodies against V5 and GFP
GFP-tagged SRA1 = GFP-tagged SRA1 (UniProt Q7L576); test: as above

V5 epitope-tagged human TMEM132D (from UniProt Q14C87 31-1099)
binding [1]: binds
binding (GFP-tagged SRA1): binds
